Experimental data as given in patent publication US5326856A, “Bifunctional isothiocyanate derived thiocarbonyls as ligands for metal binding” (Cytogen Corporation, priority 1992, dated 1994).

Assay: ITLC determination of Tc-99m incorporation and chelating capacity
[1] = ITLC in 0.9% saline, incubated 90 min at 37° C.

In the case of “Chelating Agent A-NH-SYRGDVRGDF: chelating agent A coupled with SYRGDVRGDF-NH2 peptide (chelating agent A; C-terminal amide)”, the “gamma radiation, Bottom of ITLC Strip” value [1] is reported as 1752221.2 cpm, the “gamma radiation, Top of ITLC Strip” value [1] is reported as 117530.0 cpm and the “Percent of Tc-99m Incorporation onto peptide chelator conjugate” value (bottom of ITLC strip, 90 min at 37° C., pH 4.5) is reported as 94%.
